Measurements published in PubChem BioAssay AID504408 (Broad Institute, 2011).
Hit rate of the full screen: of about 300,000 compounds, about 5,200 (1.7%) were called active. This list was built around the results that the source calls inconclusive (neither active nor inactive); the mix of calls is not that of the screen.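 Rule for the calls: active = mean replicate activation of at least 50% with a set share of replicates each reaching 50%; inconclusive = only one of those two conditions met; inactive = mean below 50% and too few replicates reaching it.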 Peptide text beside a SMILES is read from it. * marks the point of attachment. Boc = CC(C)(C)OC(=O)*; OtBu = CC(C)(C)O*

assay: HSF-1 activators, primary screen, NIH3T3-HGL cells, MG132 stress, luminescence, single point (AID 504408); conditions: NIH3T3-HGL HSF-1 luciferase reporter, MG132, 8 h; at 9 µM; hits give high values; 100% = twice DMSO control signal;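 note: 0% = median of the neutral control wells and 100% = twice that signal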

activation, active:
C/C(CC(=O)Nc1ccc(C)c(Cl)c1)=N\NC(=O)Cc1cnc(N)s1 61.1%
Cc1nc(CN2CCN(Cc3nc(C(c4ccccc4)c4ccccc4)no3)CC2)cs1 68.6%
O=[N+]([O-])c1ccc2nc(-c3ccccc3)n(OCc3ccc(Cl)cc3)c2c1 58.9%
CCc1ccccc1NC1=NCC(=O)N1C1CCCCC1 59.2%
COc1ccc(NC(=O)c2sccc2C)cn1 69.9%
Cc1c(N=C2SCC(=O)N2/N=C\c2ccc(Br)cc2)c(=O)n(-c2ccccc2)n1C 66.7%
O/C(=C\c1nc2ccccc2[nH]1)c1cccs1 59.5%
Fc1ccc(/C=N/Nc2nc3ccccc3[nH]2)cc1F 95.1%
CC(Oc1ccc(Cl)cc1)C(=O)/C=C/N(C)C (stereo unspecified) 54%
COc1cc(NC(=O)Cc2cccs2)ccc1-n1cnnn1 75.5%
COc1ccccc1-c1nnc(-c2ccc(N3CCOCC3)cc2)o1 59.3%
CCOc1ccc2nc(SCC(=O)c3cccs3)sc2c1 60.9%
C=CCOC(=O)/C(=C/c1cccc2ccccc12)NC(=O)c1ccccc1 72.3%
CN(C)c1ccc(C2NC(=O)c3ccccc3N2)cc1 (stereo unspecified) 78.2%
Cc1cc2[nH]c(=O)c3ccccc3n2n1 54%
Oc1c(N=Nc2ccccn2)ccc2ccccc12 265%
COc1ccccc1-c1cc(C(F)(F)F)nc(S(C)(=O)=O)n1 256%
Cc1cc(C(=O)N/N=C/c2ccccc2[N+](=O)[O-])c(C)o1 58.5%
CCCOC1CCCN(C(=O)CCc2nnc(Cc3cccc(C)c3)o2)C1 (stereo unspecified) 63.1%
CCOC(=O)c1sc(C)c2c1NC(C)(c1cccc3ccccc13)NC2=O (stereo unspecified) 97.8%

activation, inconclusive:
Clc1ccc(N=NN2CCOCC2)cc1 50.4%
O=C(Cc1ccc(Br)cc1)NCc1ccccc1 50%
Cc1ccc(C)c(NC(=S)NCc2ccc3c(c2)OCO3)c1 50.2%
Cc1ccc(O)c(CNc2nccs2)c1 55.2%
COc1ccc(CCNC(=O)c2ccc(Cl)cc2Cl)cc1OC 51.7%
CCCCSc1nnc2c(n1)[nH]c1ccccc12 51%
CCOc1ccc(NC(=O)CCc2c(C)nn(-c3ccc(N4CCCCC4)nn3)c2C)cc1 54.5%
Cc1ncc([N+](=O)[O-])n1CCOC(=O)c1cc(Cl)cc(Cl)c1N 52.7%
COc1cccc(COc2ccc3c(C)cc(=O)oc3c2)c1 50.4%
COC(=O)C(Cc1ccc(O)cc1)NC(=O)C(CC(=O)OC(C)(C)C)NC(=O)OC(C)(C)C (stereo unspecified) (Boc-Asp(OtBu)-Tyr-OMe; configuration not given here) 52.4%
Nc1ncnc2c1CCC2 53.2%
CC(=O)Cc1cc(O)c2ccccc2c1OC(=O)c1ccccc1 51.5%
Cc1ccc(/C=N/Nc2ccc(F)cc2F)s1 60.5%
Cc1sc(NC(=O)C2CCCCC2)c(C#N)c1-c1ccccc1 52.1%
O=C(/C=C/c1cn(CC(O)CN2CCCCCC2)c2ccccc12)c1cccs1 (stereo unspecified) 51.6%
C/C(=N\OC(=O)NC(C)C)c1sc(-c2ccc(Cl)cc2)nc1C 56.9%
CCCCN1CCc2c([nH]c3ccc(C)cc23)C1=O 50%
Cc1ccc2nc(SCc3nc4ccccc4c(=O)[nH]3)[nH]c2c1 53.4%
CCCn1c(C)nc2c(c1=O)c1nc3ccccc3nc1n2CCC1=CCCCC1 51.4%
O=C(Nc1ccc(Cl)cn1)c1cc2ccccc2o1 50.9%
O=C(Nc1ccc(Br)cc1)Nc1ccccc1F 51.8%
CCCc1cc(=O)oc2cc(C)c3c(C)coc3c12 50.5%
CCSc1ccc(-c2ccc(C)cc2)nn1 53.5%
Cc1ccccc1NC(=O)/C(C#N)=C/c1ccc(-c2ccc(Cl)c(C(=O)O)c2)o1 53.9%
O=C1CCN(Cc2ccccc2)N1 57.2%
O=C(Nc1ccc2c(c1)OCCO2)c1ccc(Cl)cc1Cl 54.6%
O=C(CSc1ncn(-c2ccccc2)n1)c1cccs1 51.1%
CNC(C)C#Cc1ccc2oc3cc(C)c(C)cc3c(=O)c2c1 (stereo unspecified) 50.9%
COC(=O)c1cc2c(ccn2-c2ccc(F)cc2)n1Cc1ccc(C#N)cc1 53.1%
CC(=O)COc1cccc2ccc(/C=C/c3ccc(Br)s3)nc12 50.3%
FC(F)(F)c1cccc(Cn2nnnc2-c2cc(Cl)cc(Cl)c2)c1 58.6%
COc1ccc(Cl)cc1N1C(=O)/C(=C\c2sccc2C)N=C1SCC(=O)NC1CC1 51.4%
O=C(CNC(=S)N(Cc1ccccc1)Cc1cccnc1)NC1CCCC1 53.6%
Cc1c(NC(=O)c2ccc([N+](=O)[O-])o2)cccc1-c1nc2ncccc2o1 62.3%
Nn1cnnc1N/N=C/c1ccccc1C(F)(F)F 52.5%
CCn1cnc2cc(NCc3ccc(OC)cc3)ccc21 76%
CCCN1Cc2cccc(C(=O)Nc3ccc(-c4nc5ccccc5[nH]4)cc3)c2C1=O 50.5%
O=C(c1cc(-c2ccc(Cl)c(Cl)c2)on1)N1CCCCC1 51.5%
C/C(=N\Nc1nc(C)cc(-c2ccccc2)n1)c1ccc(C)o1 53.4%
O=C(NNC(=S)NCCc1ccccc1)c1ccc(Br)s1 53.2%
Cc1cccc(N2CCN(C(=S)NCc3ccco3)CC2)c1C 50.6%
O=C(CCNS(=O)(=O)c1cccs1)N1CCc2ccccc2C1 51.3%
COc1cc(CCC(C)=O)ccc1OC(=O)c1c(F)cccc1Cl 54.7%
Cc1ccc(NC(=S)N(Cc2cccs2)Cc2cc3cccc(C)c3[nH]c2=O)cc1 53.4%
CC(=O)Oc1c(Cl)cc(N(C(C)=O)S(=O)(=O)c2ccccc2)c2ccccc12 51.4%
CC(C)c1ccc(C(=O)NCCCc2ccccc2)cc1 51%
CCOc1cc(C(=O)Nc2ccc3c4c(cccc24)C(=O)N3CC)cc(OCC)c1OCC 50.8%
O=C(Nc1ccccc1N1CCOCC1)c1cc2ccccc2o1 57.4%
Cc1[nH]nc(Nc2ccc(C(C)C)cc2)c1[N+](=O)[O-] 51.1%
CCOc1ccc(C(=O)NC2CC3CCCC(C2)N3CC(C)C)cc1 (stereo unspecified) 54.5%
N#Cc1ccsc1NC(=O)CN1CCN(S(=O)(=O)c2ccc3ccccc3c2)CC1 57.6%

An excerpt from above in order of molar mass, falling.
activation, inconclusive:
COC(=O)C(Cc1ccc(O)cc1)NC(=O)C(CC(=O)OC(C)(C)C)NC(=O)OC(C)(C)C (stereo unspecified) (Boc-Asp(OtBu)-Tyr-OMe; configuration not given here) 52.4%
Cc1ccc(NC(=S)N(Cc2cccs2)Cc2cc3cccc(C)c3[nH]c2=O)cc1 53.4%
CCCN1Cc2cccc(C(=O)Nc3ccc(-c4nc5ccccc5[nH]4)cc3)c2C1=O 50.5%
Cc1ccccc1NC(=O)/C(C#N)=C/c1ccc(-c2ccc(Cl)c(C(=O)O)c2)o1 53.9%
FC(F)(F)c1cccc(Cn2nnnc2-c2cc(Cl)cc(Cl)c2)c1 58.6%
Cc1c(NC(=O)c2ccc([N+](=O)[O-])o2)cccc1-c1nc2ncccc2o1 62.3%
C/C(=N\OC(=O)NC(C)C)c1sc(-c2ccc(Cl)cc2)nc1C 56.9%
COc1cc(CCC(C)=O)ccc1OC(=O)c1c(F)cccc1Cl 54.7%
O=C(c1cc(-c2ccc(Cl)c(Cl)c2)on1)N1CCCCC1 51.5%
CC(=O)Cc1cc(O)c2ccccc2c1OC(=O)c1ccccc1 51.5%
CNC(C)C#Cc1ccc2oc3cc(C)c(C)cc3c(=O)c2c1 (stereo unspecified) 50.9%
O=C(CSc1ncn(-c2ccccc2)n1)c1cccs1 51.1%
COc1cccc(COc2ccc3c(C)cc(=O)oc3c2)c1 50.4%
CCn1cnc2cc(NCc3ccc(OC)cc3)ccc21 76%
Nn1cnnc1N/N=C/c1ccccc1C(F)(F)F 52.5%
Cc1[nH]nc(Nc2ccc(C(C)C)cc2)c1[N+](=O)[O-] 51.1%
CCCCSc1nnc2c(n1)[nH]c1ccccc12 51%
CCCCN1CCc2c([nH]c3ccc(C)cc23)C1=O 50%
Cc1ccc(/C=N/Nc2ccc(F)cc2F)s1 60.5%
Clc1ccc(N=NN2CCOCC2)cc1 50.4%
Cc1ccc(O)c(CNc2nccs2)c1 55.2%
Nc1ncnc2c1CCC2 53.2%

Following part:

activation, inactive:
COc1ccc(C)cc1NS(=O)(=O)c1ccc(-c2cnc(C3CC3)o2)cc1 -55.5%
CCOC(=O)C(=O)NN=C(c1ccccc1)c1ccccc1 -2.59%
CCc1ccccc1N1CC(C(=O)Nc2nccs2)CC1=O (stereo unspecified) 17.8%
COc1cccc(NC(=O)CCSc2nnc3scc(-c4ccccc4)n23)c1 -78%
CN(Cc1ccccc1)C(=O)CCCn1c(=O)c2cccn2c2cccnc21 -0.466%
Cc1nnc(NC(=O)c2ccc(S(=O)(=O)N3CCCCCC3)cc2)o1 -1.93%
CN(CC(=O)Nc1c(Cl)cccc1Cl)C(=O)Cc1ccc2c(c1)CCC2 -5.16%
CCN(CC(=O)Nc1c(F)cccc1F)C(=O)/C=C/c1ccc2ccccc2n1 -1.03%
COc1cc(CN2CCC(CO)(CCOc3ccccc3)CC2)cc(OC)c1 12%
CCCC(=O)Nc1cccc(NC(=O)c2ccc3c(c2)OCCO3)c1 -11.3%
CN(C)CCCNC(=O)C1CCNCC1 2.13%
COc1cccc(NC(=O)CN(C)C(=O)CNC(=O)c2ccc3ccccc3c2)c1 7.2%
CS(=O)(=O)c1ccc2nc(NC(=O)C3CCCO3)sc2c1 (stereo unspecified) -9.74%
COc1ccc(S(=O)(=O)N2CCN(Cc3cccc(F)c3)CC2)cc1 -5.21%
CCNC(=S)N(CCCN(CC)CC)Cc1cc2cc3c(cc2[nH]c1=O)OCO3 -1.85%
Cc1nnc(NC(=O)CSc2nnc(NC(=O)C(C)(C)C)s2)s1 0.0467%
CC1=CC(C)(C)N(S(=O)(=O)c2ccc(C)cc2)c2cc(C)ccc21 -12.8%
Cc1ccc(NC2=Nc3ccccc3CS2)cc1 5.83%
O=C(O)c1cccc(-n2nnnc2SCc2ccccn2)c1 -10.7%
CCN(CC(=O)Nc1ccc(NC(C)=O)cc1)c1ccc(C(F)(F)F)cn1 15.5%
O=C(Cn1c(=O)oc2cc(S(=O)(=O)N3CCc4ccccc43)ccc21)NC1CCCC1 13.2%
c1ccc(-c2nc3nc4ccccc4nc3n2Cc2ccco2)cc1 -2.71%
CC(C)N1CCC(N2CCN(Cc3ccc(-c4ccc(Cl)cc4)o3)CC2CCO)CC1 (stereo unspecified) 0.012%
Cc1c(C(=O)O)cccc1-c1ccc(/C=N/n2cnnc2)o1 1.86%
CCCCn1c(N)c(N(CC(C)C)C(=O)c2ccc(Br)o2)c(=O)[nH]c1=O -5.41%
